In publication PMC9666523 one finds binding data, which are given here for two substances.

Amino acid sequences for entries named in this document (tags omitted).
UniProt Q8CHG3: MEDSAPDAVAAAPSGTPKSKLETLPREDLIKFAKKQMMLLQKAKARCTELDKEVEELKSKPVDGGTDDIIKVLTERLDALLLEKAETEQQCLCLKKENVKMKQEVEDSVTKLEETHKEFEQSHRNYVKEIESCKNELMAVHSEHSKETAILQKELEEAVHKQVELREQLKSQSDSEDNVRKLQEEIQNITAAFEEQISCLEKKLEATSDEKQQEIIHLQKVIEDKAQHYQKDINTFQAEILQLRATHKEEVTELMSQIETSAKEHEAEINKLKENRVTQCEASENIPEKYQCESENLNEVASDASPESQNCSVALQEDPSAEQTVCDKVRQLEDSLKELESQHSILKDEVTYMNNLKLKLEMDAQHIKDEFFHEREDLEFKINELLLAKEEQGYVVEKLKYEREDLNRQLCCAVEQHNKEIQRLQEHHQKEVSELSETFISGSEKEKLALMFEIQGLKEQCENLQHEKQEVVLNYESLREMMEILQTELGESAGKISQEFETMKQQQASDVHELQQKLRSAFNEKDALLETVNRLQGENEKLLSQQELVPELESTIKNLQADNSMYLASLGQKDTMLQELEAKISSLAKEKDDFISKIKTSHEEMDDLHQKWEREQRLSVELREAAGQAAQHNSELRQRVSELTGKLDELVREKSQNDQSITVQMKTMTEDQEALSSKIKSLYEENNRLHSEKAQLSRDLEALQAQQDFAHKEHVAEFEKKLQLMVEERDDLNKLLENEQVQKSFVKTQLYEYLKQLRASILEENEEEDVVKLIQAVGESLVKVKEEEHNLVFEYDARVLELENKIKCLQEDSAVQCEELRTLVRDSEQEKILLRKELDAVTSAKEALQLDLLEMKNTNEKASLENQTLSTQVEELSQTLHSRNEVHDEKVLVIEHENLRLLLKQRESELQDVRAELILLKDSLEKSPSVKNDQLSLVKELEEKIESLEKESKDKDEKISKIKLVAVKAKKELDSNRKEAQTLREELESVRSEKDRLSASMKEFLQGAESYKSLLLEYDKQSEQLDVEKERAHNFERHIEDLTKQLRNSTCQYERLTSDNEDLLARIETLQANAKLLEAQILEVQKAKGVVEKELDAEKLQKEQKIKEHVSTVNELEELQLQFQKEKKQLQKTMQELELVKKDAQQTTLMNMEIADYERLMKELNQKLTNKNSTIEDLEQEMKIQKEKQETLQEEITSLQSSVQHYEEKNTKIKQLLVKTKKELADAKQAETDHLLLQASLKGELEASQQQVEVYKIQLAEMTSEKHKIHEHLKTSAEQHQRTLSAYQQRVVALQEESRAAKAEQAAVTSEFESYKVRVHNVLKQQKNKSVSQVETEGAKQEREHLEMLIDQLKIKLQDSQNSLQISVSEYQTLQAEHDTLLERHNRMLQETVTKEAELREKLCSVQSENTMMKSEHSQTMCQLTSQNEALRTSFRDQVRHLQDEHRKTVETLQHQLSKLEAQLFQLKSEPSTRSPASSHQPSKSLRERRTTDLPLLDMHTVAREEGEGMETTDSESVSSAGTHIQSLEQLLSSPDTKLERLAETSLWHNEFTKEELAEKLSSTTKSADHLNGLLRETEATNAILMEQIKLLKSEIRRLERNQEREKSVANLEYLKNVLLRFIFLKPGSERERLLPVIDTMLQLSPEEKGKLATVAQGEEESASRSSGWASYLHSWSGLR
UniProt P59279: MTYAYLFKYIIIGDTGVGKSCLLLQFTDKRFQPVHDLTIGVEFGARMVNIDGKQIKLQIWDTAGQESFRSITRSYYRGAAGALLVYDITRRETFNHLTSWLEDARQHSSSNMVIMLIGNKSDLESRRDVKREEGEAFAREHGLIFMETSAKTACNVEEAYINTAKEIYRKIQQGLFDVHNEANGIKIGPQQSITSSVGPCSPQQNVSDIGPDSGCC
UniProt P61294: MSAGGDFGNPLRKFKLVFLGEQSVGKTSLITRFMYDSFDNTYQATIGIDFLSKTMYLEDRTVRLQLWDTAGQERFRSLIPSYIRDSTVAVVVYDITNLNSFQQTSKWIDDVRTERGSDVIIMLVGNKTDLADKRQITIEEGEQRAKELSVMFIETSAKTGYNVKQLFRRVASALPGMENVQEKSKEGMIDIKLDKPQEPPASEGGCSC

In assay [1] the target is GCC2 (UniProt Q8CHG3). As to the kind of experiment: co-IP; co-IP of GCC2 with Rabs and with STING in HEK293T cells (Supplementary Fig. 7b-d); bait, tags and antibodies not shown; lysis in 20 mM Tris-HCl pH 7.4, 0.5% Nonidet-P40, 150 mM NaCl.
In assay [2] the target is T1, FLAG-Sting (UniProt Q3TBT3).
T1 sequence: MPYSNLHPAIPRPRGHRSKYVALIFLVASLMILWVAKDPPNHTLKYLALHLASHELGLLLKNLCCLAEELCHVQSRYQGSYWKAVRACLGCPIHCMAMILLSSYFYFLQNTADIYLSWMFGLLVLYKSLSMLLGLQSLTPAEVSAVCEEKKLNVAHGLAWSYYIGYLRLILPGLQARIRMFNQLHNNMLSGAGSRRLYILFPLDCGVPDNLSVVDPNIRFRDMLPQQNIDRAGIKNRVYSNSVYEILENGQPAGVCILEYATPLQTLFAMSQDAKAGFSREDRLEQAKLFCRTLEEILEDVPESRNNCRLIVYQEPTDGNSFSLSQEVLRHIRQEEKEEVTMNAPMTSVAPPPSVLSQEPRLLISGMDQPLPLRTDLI
Put plainly: co-IP; HEK293T cells transfected with FLAG-Sting and HA-Rab GTPases, harvested 24 h later; lysis in 20 mM Tris-HCl pH 7.4, 0.5% Nonidet-P40, 150 mM NaCl; IP with the FLAG antibody on Protein G dynabeads overnight at 4 °C; western blot.

No constants are given. Whether binding was seen depends on the method and setting. Binding seen in cells or lysates may run through a third protein. Some results given as binding are weak or reduced against the parent protein; the word gives no strength. For some of these results: Sequences can lack the tags named with a protein.

Regarding HA-Rab2b (from UniProt P59279 1-216), the binding entry in assay [1] and in assay [2] was “binds” in each case.
As to HA-Rab6b (from UniProt P61294 1-208), the binding entry in assay [1] and in assay [2] was “binds” throughout.
